Counter-ions that a name gives are not always drawn. The list shows a part of the results. Hit calls seldom repeat between salt and free forms of one compound.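 Kinases were expressed as nanoluciferase fusions in K562 cells and luminescence was read every 4 h between 2 and 18 h as percent of control, DMSO set to 100% and a positive control to 0%. A time point counts as decreased when the signal drops significantly (2 sigma). The hit call is the authors' own, does not follow from the count of time points alone, and its rule is not shown.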
Target: CDK9 (UniProt P50750)
Experiment: kinase-Nluc reporter destabilization hit call (1 = scored as downregulated) (binary); higher = compound decreases kinase abundance
Settings: 10 µM; K562; 2-18 h

Sequences of proteins named here, by UniProt entry; tags and fusion partners are left off.
UniProt P50750, whole entry: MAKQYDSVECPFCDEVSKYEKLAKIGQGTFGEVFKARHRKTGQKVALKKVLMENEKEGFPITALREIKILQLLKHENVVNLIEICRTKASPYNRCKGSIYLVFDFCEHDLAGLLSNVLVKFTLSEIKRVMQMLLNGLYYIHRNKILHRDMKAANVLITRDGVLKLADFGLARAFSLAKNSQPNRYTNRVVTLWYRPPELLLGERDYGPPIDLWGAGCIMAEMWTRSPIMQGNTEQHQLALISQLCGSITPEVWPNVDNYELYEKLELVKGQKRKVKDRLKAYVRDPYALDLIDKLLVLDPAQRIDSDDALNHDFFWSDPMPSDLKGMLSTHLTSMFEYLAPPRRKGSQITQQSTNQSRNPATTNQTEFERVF
UniProt O96017, whole entry: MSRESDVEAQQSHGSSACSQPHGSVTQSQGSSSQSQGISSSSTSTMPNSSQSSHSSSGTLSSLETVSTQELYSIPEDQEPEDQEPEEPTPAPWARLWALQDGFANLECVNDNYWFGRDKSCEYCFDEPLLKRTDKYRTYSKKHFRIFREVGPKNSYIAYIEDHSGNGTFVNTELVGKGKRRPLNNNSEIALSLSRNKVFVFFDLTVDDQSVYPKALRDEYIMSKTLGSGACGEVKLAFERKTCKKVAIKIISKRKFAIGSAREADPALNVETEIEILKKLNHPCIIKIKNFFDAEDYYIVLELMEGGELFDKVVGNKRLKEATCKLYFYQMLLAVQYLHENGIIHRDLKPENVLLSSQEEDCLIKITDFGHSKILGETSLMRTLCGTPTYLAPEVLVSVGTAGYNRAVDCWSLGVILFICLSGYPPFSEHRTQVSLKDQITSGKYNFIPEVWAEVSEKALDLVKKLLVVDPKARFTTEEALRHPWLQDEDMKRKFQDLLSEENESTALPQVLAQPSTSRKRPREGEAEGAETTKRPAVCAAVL

kinase-Nluc reporter destabilization hit call, inactive:
C[C@H]1CN(C2COC2)CCN1c1ccc(Nc2cc(-c3ccnc(N4CCn5c(cc6c5CC(C)(C)C6)C4=O)c3CO)cn(C)c2=O)nc1 [Fenebrutinib] 0
Nc1ncccc1-c1nc2ccc(-c3ccccc3)nc2n1-c1ccc(C2(N)CCC2)cc1 [Miransertib] 0
C=CC(=O)Nc1cc2c(Nc3ccc(F)c(Cl)c3)ncnc2cc1OCCCN1CCOCC1 [Canertinib] 0
O=c1ncn2nc(Sc3ccc(F)cc3F)ccc2c1-c1c(Cl)cccc1Cl [Neflamapimod] 0
CCCCCC1CC1CC1CC1CCCCCCCC(=O)OC (configuration not stated) 0
CC(C)(C)n1nc(-c2ccc(Cl)cc2)c2c(N)ncnc21 0
NC1(C(=O)N[C@@H](CCO)c2ccc(Cl)cc2)CCN(c2nc[nH]c3nccc2-3)CC1 [Capivasertib] 0
Cc1ccc(O)cc1Nc1ccnc(Nc2cccc(C(N)=O)c2)n1 [Lck inhibitor 2] 0

Target: CHEK2 (UniProt O96017)
Experiment: as above
Settings: 2.5 µM; K562; 2-18 h

kinase-Nluc reporter destabilization hit call, inactive:
C=CC(=O)N1CCC[C@@H](n2nc(-c3ccc(Oc4ccccc4)cc3)c3c(N)ncnc32)C1 [Ibrutinib] 0
Cc1cn(-c2cc(NC(=O)c3ccc(C)c(Nc4nccc(-c5cccnc5)n4)c3)cc(C(F)(F)F)c2)cn1 [Nilotinib] 0
Cc1cc(C)n2c1C=C1C=CC(CCC(=O)NCCN3CCN(C/C=C/C(=O)N4CCCC(n5nc(-c6ccc(Oc7ccccc7)cc6)c6c(N)ncnc65)C4)CC3)=[N+]1[B-]2(F)F (configuration not stated) 0
Cc1cnc(Nc2ccc(OCCN3CCCC3)cc2)nc1Nc1cccc(S(=O)(=O)NC(C)(C)C)c1 [Fedratinib (hydrochloride hydrate)] 0
C=CC(=O)Nc1cc2c(Nc3ccc(F)c(Cl)c3)ncnc2cc1OCCCN1CCOCC1 [Canertinib (dihydrochloride)] 0
O=C(Nc1cccc(Nc2nccc(Nc3cccc(C(F)(F)F)c3)n2)c1)C1CC1 [Aurora kinase inhibitor-3] 0
COc1ccc(-c2cc3nccn3c(Nc3ncccc3C(N)=O)n2)cc1OC [BAY 61-3606 (dihydrochloride)] 0
Nc1nc(Nc2ccc(S(N)(=O)=O)cc2)nn1C(=O)c1c(F)cccc1F 0
COc1cc(N2CCC(N3CCN(C)CC3)CC2)ccc1Nc1ncc(Cl)c(Nc2ccccc2S(=O)(=O)C(C)C)n1 0
COc1cc(Nc2c(C#N)cnc3cc(OCCCN4CCN(C)CC4)c(OC)cc23)c(Cl)cc1Cl [Bosutinib] 0
CCc1cc2c(cc1-c1cnn(CC(=O)N(C)C)c1)C(C)(C)c1[nH]c3cc(C#N)ccc3c1C2=O 0
Cc1cnc(Nc2ccc(OCCN3CCCC3)cc2)nc1Nc1cccc(S(=O)(=O)NC(C)(C)C)c1 [Fedratinib] 0
Cc1cc(Nc2cc(N3CCN(C)CC3)nc(/C=C/c3ccccc3)n2)n[nH]1 [ENMD-2076 (Tartrate)] 0
Cc1cc(Nc2cc(N3CCN(C)CC3)nc(/C=C/c3ccccc3)n2)n[nH]1 0

Quoted at random: 2 records from the list
kinase-Nluc reporter destabilization hit call, inactive:
Cc1cnc(Nc2ccc(OCCN3CCCC3)cc2)nc1Nc1cccc(S(=O)(=O)NC(C)(C)C)c1 [Fedratinib] 0
COc1cc(N2CCC(N3CCN(C)CC3)CC2)ccc1Nc1ncc(Cl)c(Nc2ccccc2S(=O)(=O)C(C)C)n1 0
